Source: the supplement of paper PMC10849652
Some of the results follow.

By UniProt entry, the sequences of proteins in these tests, tags left out. Where a name states a change or a piece, a line headed by the entry shows the natural chain unless it says otherwise.
UniProt Q9BSF8: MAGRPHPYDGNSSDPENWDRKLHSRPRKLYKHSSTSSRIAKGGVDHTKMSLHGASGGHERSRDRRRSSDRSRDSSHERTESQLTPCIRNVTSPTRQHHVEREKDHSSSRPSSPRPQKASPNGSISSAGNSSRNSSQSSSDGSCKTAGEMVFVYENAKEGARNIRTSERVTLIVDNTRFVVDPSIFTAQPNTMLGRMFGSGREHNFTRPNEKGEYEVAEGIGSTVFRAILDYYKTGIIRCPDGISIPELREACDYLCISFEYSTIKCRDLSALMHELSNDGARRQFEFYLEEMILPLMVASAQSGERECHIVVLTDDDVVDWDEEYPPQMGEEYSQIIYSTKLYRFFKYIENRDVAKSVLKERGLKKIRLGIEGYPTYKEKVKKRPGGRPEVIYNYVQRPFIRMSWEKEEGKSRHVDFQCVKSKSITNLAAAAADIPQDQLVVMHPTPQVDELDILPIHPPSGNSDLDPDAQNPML
UniProt Q7Z7L8: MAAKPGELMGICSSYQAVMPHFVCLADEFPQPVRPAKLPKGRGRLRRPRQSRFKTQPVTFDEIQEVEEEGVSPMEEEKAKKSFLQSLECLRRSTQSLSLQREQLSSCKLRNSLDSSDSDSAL
UniProt Q9BWL3: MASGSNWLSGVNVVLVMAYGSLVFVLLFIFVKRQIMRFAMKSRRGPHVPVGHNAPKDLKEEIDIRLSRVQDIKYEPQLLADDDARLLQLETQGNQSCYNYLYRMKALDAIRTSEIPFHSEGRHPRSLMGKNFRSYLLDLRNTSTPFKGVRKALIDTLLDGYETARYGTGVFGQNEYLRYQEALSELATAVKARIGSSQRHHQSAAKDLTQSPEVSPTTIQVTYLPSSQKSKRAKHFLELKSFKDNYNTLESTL
UniProt Q9BUW7: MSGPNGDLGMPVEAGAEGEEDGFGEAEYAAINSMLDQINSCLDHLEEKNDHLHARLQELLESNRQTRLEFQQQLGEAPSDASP
UniProt Q9UPA5: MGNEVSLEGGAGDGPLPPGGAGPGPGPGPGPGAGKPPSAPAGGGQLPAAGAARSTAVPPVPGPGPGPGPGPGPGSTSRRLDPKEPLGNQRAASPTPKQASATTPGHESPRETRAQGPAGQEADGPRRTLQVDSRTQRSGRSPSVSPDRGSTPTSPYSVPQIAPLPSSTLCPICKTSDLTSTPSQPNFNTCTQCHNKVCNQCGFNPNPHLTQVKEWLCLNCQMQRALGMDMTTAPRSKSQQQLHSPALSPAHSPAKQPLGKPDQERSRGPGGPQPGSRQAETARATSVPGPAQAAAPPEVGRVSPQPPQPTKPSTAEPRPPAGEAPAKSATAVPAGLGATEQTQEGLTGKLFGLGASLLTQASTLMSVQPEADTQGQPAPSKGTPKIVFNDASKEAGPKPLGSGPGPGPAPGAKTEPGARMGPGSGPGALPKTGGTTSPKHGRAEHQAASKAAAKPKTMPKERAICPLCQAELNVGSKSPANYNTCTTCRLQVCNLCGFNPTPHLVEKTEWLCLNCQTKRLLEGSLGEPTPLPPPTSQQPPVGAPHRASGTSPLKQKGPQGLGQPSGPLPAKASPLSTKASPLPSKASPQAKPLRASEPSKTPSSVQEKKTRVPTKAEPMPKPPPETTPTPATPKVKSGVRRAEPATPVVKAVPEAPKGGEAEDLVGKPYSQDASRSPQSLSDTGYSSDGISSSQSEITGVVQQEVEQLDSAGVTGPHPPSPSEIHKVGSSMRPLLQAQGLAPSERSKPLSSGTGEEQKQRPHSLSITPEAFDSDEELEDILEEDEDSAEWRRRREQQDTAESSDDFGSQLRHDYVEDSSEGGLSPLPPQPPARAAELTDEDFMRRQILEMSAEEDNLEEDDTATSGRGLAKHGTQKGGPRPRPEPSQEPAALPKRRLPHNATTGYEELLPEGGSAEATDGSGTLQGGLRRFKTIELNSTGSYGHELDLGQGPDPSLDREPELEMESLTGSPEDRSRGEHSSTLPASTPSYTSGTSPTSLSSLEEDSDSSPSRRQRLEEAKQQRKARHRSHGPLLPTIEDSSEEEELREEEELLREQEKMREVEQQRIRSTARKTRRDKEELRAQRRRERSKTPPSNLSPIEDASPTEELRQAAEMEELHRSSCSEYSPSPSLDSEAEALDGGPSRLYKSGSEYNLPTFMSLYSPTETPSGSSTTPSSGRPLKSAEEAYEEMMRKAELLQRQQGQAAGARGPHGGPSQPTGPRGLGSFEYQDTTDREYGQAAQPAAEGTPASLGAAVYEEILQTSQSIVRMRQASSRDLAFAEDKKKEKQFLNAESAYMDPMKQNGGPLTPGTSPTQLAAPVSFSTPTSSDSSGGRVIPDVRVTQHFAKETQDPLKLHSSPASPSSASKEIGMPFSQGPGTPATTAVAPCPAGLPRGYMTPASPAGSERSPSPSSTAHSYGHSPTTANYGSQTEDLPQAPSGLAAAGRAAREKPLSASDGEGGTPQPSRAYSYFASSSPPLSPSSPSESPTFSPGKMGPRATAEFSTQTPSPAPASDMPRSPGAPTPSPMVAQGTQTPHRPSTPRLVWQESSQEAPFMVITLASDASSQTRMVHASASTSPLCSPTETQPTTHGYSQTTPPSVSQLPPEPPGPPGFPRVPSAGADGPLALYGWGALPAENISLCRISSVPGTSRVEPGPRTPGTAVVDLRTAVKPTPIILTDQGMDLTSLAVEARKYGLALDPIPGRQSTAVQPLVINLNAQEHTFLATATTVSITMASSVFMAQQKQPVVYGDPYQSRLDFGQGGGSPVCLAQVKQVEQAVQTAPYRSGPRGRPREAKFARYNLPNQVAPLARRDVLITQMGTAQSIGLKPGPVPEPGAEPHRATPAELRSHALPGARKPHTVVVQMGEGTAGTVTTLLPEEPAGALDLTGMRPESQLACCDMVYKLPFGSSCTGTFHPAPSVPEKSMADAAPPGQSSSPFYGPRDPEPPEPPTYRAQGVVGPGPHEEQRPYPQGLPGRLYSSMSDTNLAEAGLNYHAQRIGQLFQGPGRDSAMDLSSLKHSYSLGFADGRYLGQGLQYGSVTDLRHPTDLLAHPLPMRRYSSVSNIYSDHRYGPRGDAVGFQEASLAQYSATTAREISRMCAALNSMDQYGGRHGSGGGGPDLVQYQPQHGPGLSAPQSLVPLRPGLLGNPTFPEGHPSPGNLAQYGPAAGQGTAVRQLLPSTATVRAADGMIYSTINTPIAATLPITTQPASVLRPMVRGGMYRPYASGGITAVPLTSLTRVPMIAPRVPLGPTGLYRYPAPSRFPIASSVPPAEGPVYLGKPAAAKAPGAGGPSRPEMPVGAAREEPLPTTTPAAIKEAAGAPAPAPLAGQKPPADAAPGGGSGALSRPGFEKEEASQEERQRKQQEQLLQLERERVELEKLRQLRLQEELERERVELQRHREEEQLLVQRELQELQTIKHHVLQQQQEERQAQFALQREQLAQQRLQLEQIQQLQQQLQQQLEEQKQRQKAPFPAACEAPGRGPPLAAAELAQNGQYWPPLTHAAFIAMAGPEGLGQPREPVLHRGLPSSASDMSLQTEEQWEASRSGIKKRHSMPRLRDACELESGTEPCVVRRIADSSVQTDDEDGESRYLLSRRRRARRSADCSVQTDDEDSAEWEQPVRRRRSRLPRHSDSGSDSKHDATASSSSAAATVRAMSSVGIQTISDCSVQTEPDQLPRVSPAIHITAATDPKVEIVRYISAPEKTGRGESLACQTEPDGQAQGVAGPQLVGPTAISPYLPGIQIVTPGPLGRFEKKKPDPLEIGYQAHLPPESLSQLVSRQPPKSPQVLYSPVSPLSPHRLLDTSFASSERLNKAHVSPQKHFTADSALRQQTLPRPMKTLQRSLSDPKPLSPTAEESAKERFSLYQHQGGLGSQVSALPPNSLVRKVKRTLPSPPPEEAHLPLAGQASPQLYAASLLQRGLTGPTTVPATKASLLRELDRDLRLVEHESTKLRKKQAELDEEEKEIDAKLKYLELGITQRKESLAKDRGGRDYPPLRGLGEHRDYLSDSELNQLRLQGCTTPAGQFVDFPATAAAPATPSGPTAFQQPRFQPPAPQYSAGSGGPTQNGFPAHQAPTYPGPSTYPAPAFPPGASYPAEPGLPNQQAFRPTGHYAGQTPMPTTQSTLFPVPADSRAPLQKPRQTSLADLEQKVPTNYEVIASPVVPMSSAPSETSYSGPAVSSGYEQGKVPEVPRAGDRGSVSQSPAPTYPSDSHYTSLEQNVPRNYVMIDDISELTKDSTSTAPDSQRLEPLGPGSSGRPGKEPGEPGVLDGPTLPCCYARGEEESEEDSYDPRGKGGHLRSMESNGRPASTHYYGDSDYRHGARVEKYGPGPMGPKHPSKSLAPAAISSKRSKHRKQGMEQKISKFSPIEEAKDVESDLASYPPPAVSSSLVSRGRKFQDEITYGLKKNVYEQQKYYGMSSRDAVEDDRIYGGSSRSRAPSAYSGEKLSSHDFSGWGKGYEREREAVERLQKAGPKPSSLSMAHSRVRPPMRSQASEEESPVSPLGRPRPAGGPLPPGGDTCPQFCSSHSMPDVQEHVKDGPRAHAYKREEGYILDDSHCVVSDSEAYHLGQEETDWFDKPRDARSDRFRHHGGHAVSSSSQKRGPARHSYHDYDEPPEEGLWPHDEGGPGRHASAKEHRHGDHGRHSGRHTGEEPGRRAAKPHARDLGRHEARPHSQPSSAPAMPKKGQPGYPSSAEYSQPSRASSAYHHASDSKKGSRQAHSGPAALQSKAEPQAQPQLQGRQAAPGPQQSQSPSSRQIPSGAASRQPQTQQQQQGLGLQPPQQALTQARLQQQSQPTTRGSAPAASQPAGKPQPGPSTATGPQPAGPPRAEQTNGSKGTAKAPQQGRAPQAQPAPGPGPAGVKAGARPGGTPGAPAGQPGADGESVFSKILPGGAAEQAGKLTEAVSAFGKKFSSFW
UniProt Q96N11, whole entry, looked up: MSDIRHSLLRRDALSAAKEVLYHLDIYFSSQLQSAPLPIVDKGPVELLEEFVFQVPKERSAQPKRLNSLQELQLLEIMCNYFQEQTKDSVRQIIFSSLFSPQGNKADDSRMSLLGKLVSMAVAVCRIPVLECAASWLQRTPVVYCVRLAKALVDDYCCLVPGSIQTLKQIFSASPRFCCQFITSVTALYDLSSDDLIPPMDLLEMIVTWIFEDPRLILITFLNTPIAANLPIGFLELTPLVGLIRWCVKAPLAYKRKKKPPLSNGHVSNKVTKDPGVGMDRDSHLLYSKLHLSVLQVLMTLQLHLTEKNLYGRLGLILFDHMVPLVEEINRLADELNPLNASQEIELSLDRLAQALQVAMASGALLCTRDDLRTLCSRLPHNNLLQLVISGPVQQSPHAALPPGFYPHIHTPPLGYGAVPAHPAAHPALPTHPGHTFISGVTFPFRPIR
UniProt Q14012: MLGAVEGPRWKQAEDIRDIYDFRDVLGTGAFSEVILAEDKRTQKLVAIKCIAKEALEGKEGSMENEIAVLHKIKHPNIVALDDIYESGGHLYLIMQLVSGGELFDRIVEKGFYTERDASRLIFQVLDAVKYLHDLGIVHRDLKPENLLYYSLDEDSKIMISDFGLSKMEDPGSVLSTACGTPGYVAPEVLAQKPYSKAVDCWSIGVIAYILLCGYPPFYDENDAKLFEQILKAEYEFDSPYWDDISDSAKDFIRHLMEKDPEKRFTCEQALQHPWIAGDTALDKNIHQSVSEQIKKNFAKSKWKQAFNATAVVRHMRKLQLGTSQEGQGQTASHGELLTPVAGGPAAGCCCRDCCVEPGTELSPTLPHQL
UniProt Q8TCD1: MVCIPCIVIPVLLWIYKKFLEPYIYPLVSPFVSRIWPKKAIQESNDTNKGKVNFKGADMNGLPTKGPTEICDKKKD
UniProt Q0VDD7: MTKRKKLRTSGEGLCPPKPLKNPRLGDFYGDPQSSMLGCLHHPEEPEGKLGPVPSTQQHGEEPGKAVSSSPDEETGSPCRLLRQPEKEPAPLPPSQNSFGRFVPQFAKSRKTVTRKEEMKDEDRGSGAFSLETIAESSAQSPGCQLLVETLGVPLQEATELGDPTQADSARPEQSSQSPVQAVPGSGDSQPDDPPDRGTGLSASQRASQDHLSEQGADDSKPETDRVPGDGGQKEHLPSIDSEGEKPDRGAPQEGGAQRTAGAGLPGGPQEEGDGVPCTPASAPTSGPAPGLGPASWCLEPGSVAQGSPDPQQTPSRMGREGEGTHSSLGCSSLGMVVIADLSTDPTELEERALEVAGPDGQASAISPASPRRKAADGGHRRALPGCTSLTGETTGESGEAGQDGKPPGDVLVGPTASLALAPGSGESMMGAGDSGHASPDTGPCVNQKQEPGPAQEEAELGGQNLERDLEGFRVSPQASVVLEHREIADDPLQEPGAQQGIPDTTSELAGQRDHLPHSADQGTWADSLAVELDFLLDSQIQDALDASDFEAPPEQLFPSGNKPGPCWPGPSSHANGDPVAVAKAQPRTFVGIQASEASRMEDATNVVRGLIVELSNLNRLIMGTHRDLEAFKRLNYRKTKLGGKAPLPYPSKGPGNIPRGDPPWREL
UniProt Q6PH81: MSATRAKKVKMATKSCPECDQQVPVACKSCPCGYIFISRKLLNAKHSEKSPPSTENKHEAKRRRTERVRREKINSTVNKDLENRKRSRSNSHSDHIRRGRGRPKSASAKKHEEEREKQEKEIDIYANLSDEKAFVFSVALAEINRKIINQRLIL

What was measured:
Assay in all cases: log2 fold change, soluble protein after heating vs DMSO (PISA); higher = thermal stabilisation; K562 cells, 10 uM, 30 min; active = over 0.2 and 3.5 SD of the protein, either way, in both replicates (recomputed)
saracatinib = compound: CN1CCN(CCOc2cc(OC3CCOCC3)c3c(Nc4c(Cl)ccc5c4OCO5)ncnc3c2)CC1 [saracatinib]
Outline: (§1)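 K562 cells at 2×10^6 cells/mL were exposed to 10 μM compound for 30 min, then aliquots were heated for 3 min across 48°C-58°C, pooled, and extracted in PBS containing 0.5% NP-40 at 4°C. The supernatant after 21,000xg for 90 min was taken as soluble protein and measured by TMTpro 16plex LC-MS/MS with channel sums equalised. Thermal stability is reported relative to control samples, with values from duplicates. Fold changes are given on a log2 scale.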

sotrastaurin = compound: CN1CCN(c2nc(C3=C(c4c[nH]c5ccccc45)C(=O)NC3=O)c3ccccc3n2)CC1 [sotrastaurin]
Outline: as §1

Tubastatin A = compound: CN1CCc2c(c3ccccc3n2Cc2ccc(C(=O)NO)cc2)C1 [Tubastatin A]
Outline: as §1

[1] = compound: CNC(=O)C1=CC=CC=C1NC2=NC(=NC=C2Cl)NC3=C(C=C(C=C3)N4CCOCC4)OC
Outline: as §1

defactinib = compound: CNC(=O)c1ccc(Nc2ncc(C(F)(F)F)c(NCc3nccnc3N(C)S(C)(=O)=O)n2)cc1 [defactinib]
Outline: as §1

rucaparib = compound: CNCc1ccc(-c2[nH]c3cc(F)cc4c3c2CCNC4=O)cc1 [rucaparib]
Outline: as §1

[2] = compound: CNc1nc(-c2ccc3c(N)n[nH]c3c2)cc(N2C[C@@H](C(=O)NC3CCCCC3)CC[C@H]2C)n1
Outline: as §1

encorafenib = compound: COC(=O)N[C@@H](C)CNc1nccc(-c2cn(C(C)C)nc2-c2cc(Cl)cc(NS(C)(=O)=O)c2F)n1 [encorafenib]
Outline: as §1

[3] = compound: COC(=O)[C@H](CCSC)NC(=O)C1=C(C=C(C=C1)NC[C@H](CS)N)C2=CC=CC=C2
Outline: as §1

alvocidib = compound: CN1CC[C@H](c2c(O)cc(O)c3c(=O)cc(-c4ccccc4Cl)oc23)[C@H](O)C1 [alvocidib]
Outline: as §1

Measured: log2 fold change

CAMKK2 (UniProt Q96RR4)
inactive: saracatinib 0.03 | sotrastaurin -0.042 | Tubastatin A 0.105 | [1] 0.36 | defactinib -0.104 | rucaparib -0.084 | [2] -0.101 | encorafenib 0.057 | [3] 0.057

BST2 (UniProt Q10589)
inactive: saracatinib 0.003 | sotrastaurin -0.097 | Tubastatin A -0.055 | [1] -0.063 | defactinib 0.03 | rucaparib -0.008 | [2] -0.07 | encorafenib 0 | [3] 0.012

CALCOCO2 isoform 4 (UniProt Q13137)
inactive: saracatinib -0.03 | sotrastaurin -0.127 | Tubastatin A 0.037 | [1] 0.012 | defactinib 0.017 | rucaparib -0.044 | [2] -0.034 | encorafenib 0.076 | [3] 0.021

C19orf53 (UniProt Q9UNZ5)
inactive: saracatinib -0.069 | sotrastaurin -0.03 | Tubastatin A 0.129 | [1] 0.155 | defactinib 0.296 | rucaparib 0.257 | [2] 0.053 | encorafenib 0.136 | [3] 0.036

CAMK2G isoform 6 (UniProt Q13555)
inactive: saracatinib -0.005 | sotrastaurin -0.088 | Tubastatin A -0.012 | [1] 0.25 | defactinib 0.14 | rucaparib 0.061 | [2] 0.129 | encorafenib 0 | [3] -0.074

C1orf167 isoform 2 (UniProt Q5SNV9)
inactive: saracatinib -0.419 | sotrastaurin 0.017 | alvocidib 0.193 | [1] -0.152 | defactinib 0.166 | [2] -0.08 | [3] -0.085

C9orf72 (UniProt Q96LT7)
inactive: saracatinib 0.071 | sotrastaurin 0.129 | Tubastatin A -0.126 | [1] -0.071 | defactinib -0.056 | [2] -0.021 | [3] 0

C16orf58 (UniProt Q96GQ5)
inactive: saracatinib 0.042 | sotrastaurin 0.04 | Tubastatin A -0.003 | [1] -0.005 | defactinib -0.031 | rucaparib -0.012 | [2] -0.063 | encorafenib 0.051 | [3] -0.02

CALM1 (UniProt G3V361)
inactive: saracatinib 0.13 | sotrastaurin -0.067 | [1] -0.105 | [2] 0.079

CARD19 isoform 2 (UniProt Q96LW7)
inactive: saracatinib 0.027 | alvocidib -0.102 | Tubastatin A 0.095 | defactinib 0.125 | rucaparib 0.034 | [2] -0.023 | encorafenib 0.046 | [3] 0.053

CARD8 isoform 5 (UniProt Q9Y2G2)
inactive: saracatinib -0.035 | sotrastaurin 0.023 | Tubastatin A 0 | [1] -0.027 | defactinib -0.192 | rucaparib -0.099 | [2] 0.01 | encorafenib -0.137 | [3] 0.02

BTAF1 (UniProt O14981)
inactive: saracatinib 0.087 | sotrastaurin 0.001 | Tubastatin A -0.041 | [1] -0.027 | defactinib -0.074 | rucaparib -0.089 | [2] -0.012 | encorafenib 0.026 | [3] 0.007

C1orf112 (UniProt Q9NSG2)
inactive: saracatinib -0.237 | sotrastaurin -0.119 | Tubastatin A 0.024 | defactinib -0.052 | rucaparib -0.008 | [2] -0.113 | encorafenib -0.097 | [3] -0.005

BTBD6 (UniProt Q96KE9)
inactive: saracatinib -0.031 | sotrastaurin 0.021 | Tubastatin A 0.211 | [1] -0.141 | defactinib -0.131 | rucaparib 0.327 | [2] 0.082 | encorafenib -0.101 | [3] -0.009

CAMSAP1 isoform 3 (UniProt Q5T5Y3)
inactive: saracatinib -0.084 | sotrastaurin -0.175 | Tubastatin A 0.071 | [1] -0.191 | defactinib 0.051 | rucaparib 0.048 | [2] -0.071 | encorafenib 0.065 | [3] 0.017

CALB1 (UniProt P05937)
inactive: saracatinib 0.033 | sotrastaurin 0.008 | Tubastatin A -0.026 | [1] 0.02 | defactinib 0.013 | rucaparib -0.07 | [2] -0.14 | encorafenib 0.023 | [3] 0.021

C11orf74 (UniProt Q86VG3)
inactive: sotrastaurin -0.071 | Tubastatin A 0.036 | [1] 0.137 | defactinib -0.162 | rucaparib -0.01 | encorafenib 0.046 | [3] 0.027

C5orf24 (UniProt Q7Z6I8)
inactive: saracatinib 0.206 | Tubastatin A -0.086 | defactinib 0.046 | [2] -0.127 | [3] 0.084

C8B (UniProt P07358)
inactive: saracatinib 0.258 | [2] -0.014

C8orf88 (UniProt P0DMB2)
inactive: alvocidib -0.202 | [1] -0.096 | defactinib -0.002 | [3] 0.091

BTBD10 isoform 2 (UniProt Q9BSF8)
inactive: saracatinib -0.191 | [2] -0.014

C1orf159 isoform 4 (UniProt Q96HA4)
inactive: sotrastaurin 0.113 | alvocidib -0.287 | defactinib -0.008 | [3] 0.057

C11orf96 (UniProt Q7Z7L8)
inactive: alvocidib -0.013 | defactinib 0.044 | [3] -0.213

CABIN1 (UniProt Q9Y6J0)
inactive: [1] -0.006

C1orf43 (UniProt Q9BWL3)
inactive: sotrastaurin -0.041

C9orf16 (UniProt Q9BUW7)
inactive: saracatinib 0.078 | [2] -0.063

CARD6 (UniProt Q9BX69)
inactive: rucaparib 0.007 | encorafenib 0.07

C16orf70 (UniProt Q9BSU1)
inactive: sotrastaurin 0.037 | rucaparib -0.056 | encorafenib 0.051

BSN (UniProt Q9UPA5)
inactive: alvocidib -0.089 | defactinib -0.01 | [3] 0.061

C7orf26 (UniProt Q96N11)
inactive: sotrastaurin -0.111 | [1] 0.042 | defactinib -0.189 | [3] -0.031

CAPN1 (UniProt E9PLX0)
inactive: sotrastaurin 0 | [1] 0.394 | rucaparib 0.013 | encorafenib -0.167

CAPNS1 (UniProt U3KPR7)
inactive: [1] -0.116

C8orf37 (UniProt Q96NL8)
inactive: Tubastatin A 0.005 | [1] 0.039

C11orf24 (UniProt Q96F05)
inactive: sotrastaurin -0.027 | [1] -0.376

C5 (UniProt P01031)
inactive: sotrastaurin 0.333 | alvocidib -0.005 | Tubastatin A -0.013 | defactinib 0.113 | [3] 0.132

Two entries drawn at random from those above, as already listed:
C16orf58 (UniProt Q96GQ5)
inactive: saracatinib 0.042 | sotrastaurin 0.04 | Tubastatin A -0.003 | [1] -0.005 | defactinib -0.031 | rucaparib -0.012 | [2] -0.063 | encorafenib 0.051 | [3] -0.02

C9orf72 (UniProt Q96LT7)
inactive: saracatinib 0.071 | sotrastaurin 0.129 | Tubastatin A -0.126 | [1] -0.071 | defactinib -0.056 | [2] -0.021 | [3] 0

Additional results:

CAMK1 (UniProt Q14012)
inactive: rucaparib 0.017 | encorafenib -0.129

C6orf62 (UniProt Q9GZU0)
inactive: [1] 0.017

C4BPA (UniProt P04003)
inactive: sotrastaurin 0.028 | alvocidib -0.446 | Tubastatin A -0.06 | [1] 0.424 | rucaparib -0.187 | encorafenib -0.208

C18orf32 (UniProt Q8TCD1)
inactive: sotrastaurin 0.087 | alvocidib 0.041 | Tubastatin A 0.005 | [1] 0.002 | defactinib -0.022 | rucaparib -0.015 | encorafenib -0.055 | [3] 0.065

CALML3 (UniProt P27482)
inactive: saracatinib -0.128 | Tubastatin A -0.052 | rucaparib 0.079 | [2] 0.089 | encorafenib -0.043

CALD1 (UniProt Q05682)
inactive: sotrastaurin 0.008 | alvocidib 0 | [1] -0.087

C19orf57 (UniProt Q0VDD7)
inactive: saracatinib -0.002 | alvocidib -0.013 | [1] 0.03 | defactinib 0.092 | [2] 0.115 | [3] -0.002

CAPN15 (UniProt O75808)
inactive: sotrastaurin -0.025 | [1] 0.069

C16orf87 (UniProt Q6PH81)
inactive: sotrastaurin 0.043 | defactinib -0.069 | rucaparib 0.055 | encorafenib 0.027 | [3] 0.062

C19orf12 (UniProt Q9NSK7)
inactive: Tubastatin A -0.141 | rucaparib -0.081 | encorafenib 0.078

CAPNS2 (UniProt Q96L46)
inactive: rucaparib -0.234 | encorafenib -0.221

C12orf60 (UniProt Q5U649)
inactive: Tubastatin A -0.101 | [1] 0.06

C17orf99 (UniProt Q6UX52)
inactive: [1] 0.035

C1D (UniProt Q13901)
inactive: sotrastaurin 0.005 | Tubastatin A 0.079 | [1] 0.001 | defactinib 0.042 | rucaparib -0.005 | encorafenib 0.009 | [3] 0.091

C9 (UniProt P02748)
inactive: saracatinib 0.066 | alvocidib 0.133 | Tubastatin A 0.063 | [2] -0.008

CA1 (UniProt E5RIF9)
inactive: saracatinib 0.272 | Tubastatin A -0.178 | defactinib -0.09 | [2] 0.093 | [3] -0.129

CA3 (UniProt P07451)
inactive: sotrastaurin 0.015

CAMK2A isoform 2 (UniProt Q9UQM7)
inactive: saracatinib -0.043 | [2] 0.099

CARD9 (UniProt Q9H257)
inactive: [1] 0.388

CA2 (UniProt P00918)
inactive: saracatinib -0.128 | Tubastatin A -0.013 | [1] 0.002 | defactinib -0.002 | rucaparib -0.055 | [2] 0.103 | encorafenib 0.089 | [3] 0.038

C5orf30 (UniProt Q96GV9)
inactive: Tubastatin A 0.502
